# These are yes or no findings as the source states them, for the method shown. In cells and extracts the contact can be indirect. A yes stands for co-enrichment or nearness to the bait. Other partners may have been found. Sequences can lack the tags named with a protein.
# Chains of the proteins cited; added tags and fusions are not shown.
# UniProt Q86V97: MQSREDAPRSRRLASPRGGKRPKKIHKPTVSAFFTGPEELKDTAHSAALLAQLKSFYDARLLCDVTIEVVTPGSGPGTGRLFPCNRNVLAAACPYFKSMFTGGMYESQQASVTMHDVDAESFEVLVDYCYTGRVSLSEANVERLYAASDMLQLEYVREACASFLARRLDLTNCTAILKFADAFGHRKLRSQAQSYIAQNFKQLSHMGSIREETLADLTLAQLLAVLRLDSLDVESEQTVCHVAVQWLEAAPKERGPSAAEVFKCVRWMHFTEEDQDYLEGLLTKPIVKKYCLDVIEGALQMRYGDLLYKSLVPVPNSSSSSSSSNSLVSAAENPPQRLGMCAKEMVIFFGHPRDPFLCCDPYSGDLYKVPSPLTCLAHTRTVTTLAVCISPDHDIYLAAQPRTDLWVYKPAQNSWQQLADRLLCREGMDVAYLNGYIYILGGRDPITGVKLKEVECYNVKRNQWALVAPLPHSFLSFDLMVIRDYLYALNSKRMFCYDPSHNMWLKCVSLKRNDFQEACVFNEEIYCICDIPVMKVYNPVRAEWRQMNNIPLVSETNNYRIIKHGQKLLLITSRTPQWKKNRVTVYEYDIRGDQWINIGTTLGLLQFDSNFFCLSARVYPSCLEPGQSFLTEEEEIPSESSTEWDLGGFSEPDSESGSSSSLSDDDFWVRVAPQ
# UniProt Q8WVZ9: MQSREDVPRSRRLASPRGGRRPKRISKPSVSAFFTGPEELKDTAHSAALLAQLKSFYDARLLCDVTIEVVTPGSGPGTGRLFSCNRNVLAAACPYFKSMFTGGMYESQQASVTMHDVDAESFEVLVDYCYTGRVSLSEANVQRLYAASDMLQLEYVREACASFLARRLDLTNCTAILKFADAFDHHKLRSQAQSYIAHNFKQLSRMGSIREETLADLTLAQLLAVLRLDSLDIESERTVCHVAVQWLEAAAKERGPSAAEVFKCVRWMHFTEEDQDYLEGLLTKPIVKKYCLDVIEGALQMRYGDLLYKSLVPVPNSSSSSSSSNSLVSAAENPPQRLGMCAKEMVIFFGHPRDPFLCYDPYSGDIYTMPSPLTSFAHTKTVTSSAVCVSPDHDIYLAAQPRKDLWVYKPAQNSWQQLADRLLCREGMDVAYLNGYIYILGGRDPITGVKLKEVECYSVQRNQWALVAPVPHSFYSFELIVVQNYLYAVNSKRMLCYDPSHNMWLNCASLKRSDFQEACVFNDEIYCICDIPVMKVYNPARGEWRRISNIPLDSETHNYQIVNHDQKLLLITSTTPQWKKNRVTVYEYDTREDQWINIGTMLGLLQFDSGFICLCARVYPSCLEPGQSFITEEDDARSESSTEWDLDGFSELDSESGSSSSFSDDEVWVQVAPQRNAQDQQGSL
# UniProt Q13547: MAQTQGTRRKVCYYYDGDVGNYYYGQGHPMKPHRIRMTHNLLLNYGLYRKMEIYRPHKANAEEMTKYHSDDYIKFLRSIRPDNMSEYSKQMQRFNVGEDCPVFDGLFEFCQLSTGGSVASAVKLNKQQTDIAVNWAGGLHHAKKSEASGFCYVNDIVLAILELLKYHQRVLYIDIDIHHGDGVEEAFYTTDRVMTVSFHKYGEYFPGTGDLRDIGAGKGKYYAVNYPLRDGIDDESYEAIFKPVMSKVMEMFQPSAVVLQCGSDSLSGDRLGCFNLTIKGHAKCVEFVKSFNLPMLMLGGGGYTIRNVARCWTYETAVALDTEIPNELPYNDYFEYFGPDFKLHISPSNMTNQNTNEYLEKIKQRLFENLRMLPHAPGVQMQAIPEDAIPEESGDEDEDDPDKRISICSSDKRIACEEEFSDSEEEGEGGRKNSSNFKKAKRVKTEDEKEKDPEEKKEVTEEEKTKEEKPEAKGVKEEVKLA
# Target: T1, FLAG-TULP3 (human) (UniProt O75386)
# T1 sequence: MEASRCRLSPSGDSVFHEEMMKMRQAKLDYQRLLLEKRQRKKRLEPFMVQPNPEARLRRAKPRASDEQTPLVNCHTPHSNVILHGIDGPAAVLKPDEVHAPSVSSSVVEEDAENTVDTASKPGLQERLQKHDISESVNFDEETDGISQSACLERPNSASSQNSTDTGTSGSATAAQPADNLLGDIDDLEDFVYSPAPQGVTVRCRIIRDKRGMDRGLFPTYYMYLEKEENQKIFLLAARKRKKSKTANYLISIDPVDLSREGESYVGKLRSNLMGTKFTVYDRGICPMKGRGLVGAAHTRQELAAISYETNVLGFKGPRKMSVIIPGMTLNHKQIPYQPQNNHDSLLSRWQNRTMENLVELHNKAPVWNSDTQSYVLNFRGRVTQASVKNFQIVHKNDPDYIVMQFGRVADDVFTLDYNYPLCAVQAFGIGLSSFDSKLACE
# Test: affinity purification with mass spectrometry; lysates of HEK293T cells expressing FLAG-TULP3 or empty MSCV (mock-FLAG), anti-FLAG beads, SDS-PAGE, in-gel trypsin digestion, LC-MS/MS; hits of the mock IP and proteins with high CRAPome counts removed
row,binding,Substance
1,binds,KBTB6 (from UniProt Q86V97 1-674)
2,binds,KBTB7 (from UniProt Q8WVZ9 1-684)
3,binds,HDAC1 (from UniProt Q13547 1-482) (enzyme)

# Source: PMC7948452
